Source: article PMC3275590
These are yes or no findings as the source states them, for the method shown. In cells and extracts the contact can be indirect. A result given as binding can be weak or reduced; the word gives no strength. Where a sequence is shown, tags or fusion partners need not be part of it.

Target: T1, N-terminally triple-FLAG-tagged cytosolic domain of human Sec12 (residues 1–386) (human) (UniProt Q9HCU5)
T1 sequence: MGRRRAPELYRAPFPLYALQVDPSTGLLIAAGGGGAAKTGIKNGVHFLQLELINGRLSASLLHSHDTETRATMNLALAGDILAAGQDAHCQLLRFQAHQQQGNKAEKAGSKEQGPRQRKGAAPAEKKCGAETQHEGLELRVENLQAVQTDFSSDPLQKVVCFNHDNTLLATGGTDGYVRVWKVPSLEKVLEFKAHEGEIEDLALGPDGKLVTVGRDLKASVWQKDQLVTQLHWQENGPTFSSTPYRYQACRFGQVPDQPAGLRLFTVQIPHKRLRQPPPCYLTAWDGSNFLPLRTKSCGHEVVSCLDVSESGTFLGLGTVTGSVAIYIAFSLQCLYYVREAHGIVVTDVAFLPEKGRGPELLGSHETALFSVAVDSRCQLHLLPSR
Experiment: co-IP; HeLa cells co-transfected, lysed 24 h later in 50 mM Tris-HCl pH 7.9, 50 mM NaCl, 0.5% NP-40; IP with anti-FLAG on protein A-agarose overnight at 4°C; washes 20 mM HEPES pH 7.9, 100 mM NaCl, 0.1% NP-40; immunoblot anti-FLAG and anti-GFP

binding: binds weakly
Substance: monomeric GFP fused to a C-terminal region of human Sec16A (residues 1909–2332) (domain or fragment)
